Measurements as given in the supplement of paper PMC10331698.
± gives the standard deviation of the averaged measurements. Most entries show no effect beyond the scatter of the controls.

Experiments:
Test in all cases: level (log10 ratio to DMSO vehicle control); higher = higher biomarker level / cell amount than vehicle control
[1] = compound: OCCCC(F)(F)C(F)(F)C(F)(F)C(F)(F)C(F)(F)C(F)(F)C(F)(F)C(F)(F)F [3-(Perfluorooctyl)propanol] (in DMSO); conditions: 2200 nM
Method: (§1)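 BioMAP Diversity Plus panel of 12 human primary cell co-culture systems (3C, 4H, LPS, SAg, BT, BF4T, BE3C, CASM3C, HDF3CGF, KF3CT, MyoF, Mphg). Compounds were added 1 h before stimulation and left for 24 h (MyoF 48 h; BT 72 h for soluble read-outs or 6 d for IgG). Biomarkers were read by ELISA, cytotoxicity by SRB, PBMC viability and proliferation by Alamar Blue. Each well value was divided by the mean of 8 DMSO control wells on the same plate and log10 transformed; duplicate blinded samples were tested at 4 concentrations.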

[2] = compound: FC(F)(F)C(F)(F)C(F)(F)C(F)(F)CCI [1H,1H,2H,2H-Perfluorohexyl iodide] (in DMSO); conditions: 2200 nM
Method: as §1

[3] = compound: O=C(O)CCC(F)(F)C(F)(F)C(F)(F)F [3:3 Fluorotelomer carboxylic acid] (in DMSO); conditions: 2200 nM
Method: as §1

[4] = compound: O=C(O)C(F)(OC(F)(F)C(F)(F)C(F)(F)F)C(F)(F)F [Ammonium perfluoro-2-methyl-3-oxahexanoate] (in Water)
Method: as §1

[5] = compound: FC(F)(F)C(F)(F)CNCC(F)(F)C(F)(F)F [Bis(1H,1H-perfluoropropyl)amine] (in DMSO); conditions: 2200 nM
Method: as §1

[6] = compound: C=C(C)C(=O)OCCC(F)(F)C(F)(F)C(F)(F)C(F)(F)C(F)(F)C(F)(F)F [6:2 Fluorotelomer methacrylate] (in DMSO); conditions: 2200 nM
Method: as §1

[7] = compound: OCC(F)(F)C(F)(F)C(F)(F)C(F)(F)C(F)(F)C(F)(F)CO [1H,1H,8H,8H-Perfluorooctane-1,8-diol] (in DMSO); conditions: 2200 nM
Method: as §1

[8] = compound: OCC(F)(F)C(F)(F)C(F)(F)C(F)F [1H,1H,5H-Perfluoropentanol] (in DMSO); conditions: 2200 nM
Method: as §1

[9] = compound: OCC(F)(F)C(F)(F)C(F)(F)C(F)(F)C(F)(F)C(F)(F)F [6:1 Fluorotelomer alcohol] (in DMSO); conditions: 2200 nM
Method: as §1

Perfluorohexanoic acid = compound: O=C(O)C(F)(F)C(F)(F)C(F)(F)C(F)(F)C(F)(F)F [Perfluorohexanoic acid] (in DMSO)
Method: as §1

[10] = compound: FC(F)(F)COC(OCC(F)(F)F)OCC(F)(F)F [tris(Trifluoroethoxy)methane] (in DMSO); conditions: 2200 nM
Method: as §1

[11] = compound: O=C(O)C(F)(OC(F)(F)C(F)(OC(F)(F)C(F)(OC(F)(F)C(F)(F)C(F)(F)F)C(F)(F)F)C(F)(F)F)C(F)(F)F [Perfluoro-(2,5,8-trimethyl-3,6,9-trioxadodecanoic)acid] (in DMSO); conditions: 370 nM
Method: as §1

[12] = compound: OCC(F)(F)OC(F)(F)C(F)(F)OC(F)(F)CO [1H,1H,8H,8H-Perfluoro-3,6-dioxaoctane-1,8-diol] (in DMSO); conditions: 2200 nM
Method: as §1

[13] = compound: O=S(=O)(O)C(F)(F)C(F)(F)C(F)(F)C(F)(F)F [Perfluorobutanesulfonic acid] (in DMSO)
Method: as §1

[14] = compound: O=C(O)C(F)(F)C(F)(F)C(F)(F)OC(F)(C(F)(F)F)C(F)(F)F [Perfluoro-4-isopropoxybutanoic acid] (in DMSO); conditions: 2200 nM
Method: as §1

Hexafluoroglutaric acid = compound: O=C(O)C(F)(F)C(F)(F)C(F)(F)C(=O)O [Hexafluoroglutaric acid] (in DMSO)
Method: as §1

[15] = compound: CNS(=O)(=O)C(F)(F)C(F)(F)C(F)(F)C(F)(F)C(F)(F)C(F)(F)C(F)(F)C(F)(F)F [N-Methylperfluorooctanesulfonamide] (in DMSO); conditions: 2200 nM
Method: as §1

Test System | level (log10) [1] | level (log10) [2] | level (log10) [3] | level (log10) ([4]; 2200 nM) | level (log10) ([4]; 6700 nM) | level (log10) ([4]; 20000 nM) | level (log10) ([4]; 60000 nM) | level (log10) [5] | level (log10) [6] | level (log10) [7] | level (log10) [8] | level (log10) [9] | level (log10) (Perfluorohexanoic acid; 2200 nM) | level (log10) (Perfluorohexanoic acid; 6700 nM) | level (log10) (Perfluorohexanoic acid; 20000 nM) | level (log10) (Perfluorohexanoic acid; 60000 nM) | level (log10) [10] | level (log10) [11] | level (log10) [12] | level (log10) ([13]; 2200 nM) | level (log10) ([13]; 6700 nM) | level (log10) ([13]; 20000 nM) | level (log10) ([13]; 60000 nM) | level (log10) [14] | level (log10) (Hexafluoroglutaric acid; 2200 nM) | level (log10) (Hexafluoroglutaric acid; 6700 nM) | level (log10) (Hexafluoroglutaric acid; 20000 nM) | level (log10) (Hexafluoroglutaric acid; 60000 nM) | level (log10) [15]
3C:CCL2/MCP-1 | -0.006 ± 0.024 | 0.014 ± 0.021 | 0.0025 ± 0.0064 | 0.0315 ± 0.044 | -0.003 ± 0.0085 | -0.004 ± 0.016 | 0.056 ± 0.05 | 0.004 ± 0.016 | 0.0175 ± 0.084 | 0.026 ± 0.016 | 0.007 ± 0.018 | -0.003 ± 0.024 | 0.0115 ± 0.019 | -0.006 ± 0.0028 | -0.0145 ± 0.005 | 0.0115 ± 0.022 | 0.0025 ± 0.044 | 0.0035 ± 0.042 | 0.0285 ± 0.0064 | 0.026 ± 0.086 | 0.0025 ± 0.05 | 0.0015 ± 0.021 | 0.0355 ± 0.043 | 0.0185 ± 0.03 | 0.009 ± 0.027 | -0.0005 ± 0.0035 | 0.0095 ± 0.0035 | 0.028 ± 0.018 | 0.0315 ± 0.0092
3C:CD54/ICAM-1 | 0.011 ± 0.05 | -0.0085 ± 0.026 | -0.0275 ± 0.011 | 0.006 ± 0.0071 | -0.0255 ± 0.0092 | 0.0065 ± 0.00071 | 0.0055 ± 0.011 | 0.0075 ± 0.0078 | -0.004 ± 0.0085 | 0.016 ± 0.03 | -0.002 | 0.0115 ± 0.018 | 0.0085 ± 0.018 | 0.005 ± 0.013 | -0.0045 ± 0.016 | -0.0005 ± 0.019 | -0.003 ± 0.011 | 0.006 ± 0.021 | -0.0155 ± 0.0064 | -0.002 ± 0.0071 | -0.008 ± 0.0014 | 0.0035 ± 0.0021 | 0.0015 ± 0.0021 | 0 ± 0.0099 | -0.0045 ± 0.032 | -0.0125 ± 0.018 | -0.0165 ± 0.019 | -0.0175 ± 0.018 | -0.0035 ± 0.012
3C:CD62E/E-Selectin | 0.0045 ± 0.016 | -0.0105 ± 0.028 | -0.009 ± 0.018 | 0.0055 ± 0.021 | 0.0025 ± 0.005 | 0.0105 ± 0.011 | 0.011 ± 0.011 | 0.001 ± 0.0057 | -0.027 ± 0.013 | 0.008 ± 0.024 | 0.0015 ± 0.035 | 0 ± 0.041 | 0.015 ± 0.018 | -0.0065 ± 0.0092 | -0.007 ± 0.011 | 0.0145 ± 0.029 | -0.0085 ± 0.021 | -0.0015 ± 0.029 | -0.01 ± 0.013 | -0.0085 ± 0.0021 | -0.0165 ± 0.022 | -0.008 ± 0.021 | 0.0045 ± 0.021 | -0.013 ± 0.038 | -0.002 ± 0.059 | -0.0035 ± 0.053 | -0.002 ± 0.038 | 0.031 ± 0.014 | 0.002 ± 0.028
3C:CD87/uPAR | -0.005 ± 0.041 | -0.0015 ± 0.0021 | 0.006 ± 0.0057 | 0.0065 ± 0.036 | -0.016 ± 0.054 | -0.0085 ± 0.028 | -0.042 ± 0.021 | 0.019 ± 0.025 | -0.033 ± 0.0042 | 0.014 ± 0.0014 | -0.0065 ± 0.0021 | 0.005 | -0.0105 ± 0.0064 | -0.0065 ± 0.0035 | -0.0115 ± 0.00071 | -0.01 ± 0.0099 | -0.0425 ± 0.022 | 0.0045 ± 0.0078 | 0.006 ± 0.017 | -0.0295 ± 0.0021 | -0.007 ± 0.027 | -0.0075 ± 0.00071 | -0.0235 ± 0.022 | -0.015 ± 0.05 | -0.0005 ± 0.035 | -0.0075 ± 0.018 | -0.0105 ± 0.028 | 0.0025 ± 0.013 | 0.0465 ± 0.021
3C:CD106/VCAM-1 | -0.017 ± 0.0014 | 0.013 ± 0.0099 | -0.009 ± 0.025 | -0.0065 ± 0.0078 | -0.0065 ± 0.0035 | -0.0245 ± 0.0035 | -0.0155 ± 0.00071 | -0.009 ± 0.025 | -0.013 ± 0.03 | -0.011 ± 0.0014 | -0.0035 ± 0.023 | 0.001 ± 0.035 | 0.0115 ± 0.005 | -0.002 ± 0.018 | -0.0025 ± 0.029 | 0.005 ± 0.044 | -0.0115 ± 0.013 | 0.003 ± 0.052 | -0.001 ± 0.018 | -0.0205 ± 0.023 | -0.0215 ± 0.015 | -0.016 ± 0.025 | -0.006 ± 0.013 | -0.012 ± 0.023 | 0.0095 ± 0.0078 | 0.009 ± 0.018 | 0.004 ± 0.021 | -0.008 ± 0.0057 | -0.01 ± 0.018
3C:CD141/Thrombomodulin | -0.0035 ± 0.013 | -0.017 ± 0.059 | -0.01 ± 0.033 | -0.027 ± 0.048 | -0.0395 ± 0.03 | -0.0315 ± 0.011 | -0.057 ± 0.0028 | 0.0375 ± 0.0078 | -0.0105 ± 0.028 | 0.007 ± 0.017 | 0.005 ± 0.0014 | -0.009 ± 0.0042 | 0 ± 0.02 | -0.0205 ± 0.005 | -0.022 ± 0.027 | -0.006 | -0.001 ± 0.05 | -0.014 ± 0.03 | -0.01 ± 0.031 | -0.0155 ± 0.061 | -0.0185 ± 0.049 | -0.019 ± 0.0085 | -0.054 ± 0.0085 | -0.0265 ± 0.019 | -0.011 ± 0.02 | -0.018 ± 0.017 | -0.014 ± 0.011 | -0.034 ± 0.0099 | 0.0035 ± 0.021
3C:CD142/Tissue Factor | -0.034 ± 0.051 | -0.01 ± 0.031 | 0.029 ± 0.011 | 0.0975 ± 0.054 | 0.0735 ± 0.012 | 0.0805 ± 0.0078 | 0.0805 ± 0.00071 | 0.0455 ± 0.023 | -0.02 ± 0.073 | 0.006 ± 0.037 | 0.0115 ± 0.0078 | 0.0075 ± 0.019 | 0.006 ± 0.017 | 0.011 ± 0.0085 | -0.0135 ± 0.0092 | 0.0005 ± 0.012 | -0.0055 ± 0.04 | -0.0065 ± 0.013 | 0.0255 ± 0.018 | 0.0035 ± 0.00071 | 0.003 ± 0.0028 | 0.001 ± 0.0071 | -0.005 ± 0.038 | 0 ± 0.033 | -0.0005 ± 0.011 | -0.006 ± 0.02 | -0.004 ± 0.028 | -0.0685 ± 0.005 | -0.0275 ± 0.042
